Data as given in PubChem BioAssay AID504791 (Drosophila RNAi Screening Center, 2011).
Aim: 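Factors in Argonaute-based small RNA production and activity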 (primary screen). Cell system: Drosophila S2-derived reporter cells. Reagent: long dsRNA against Drosophila genes, about 150-250 ng dsRNA per well (siRNA assay); about 80-120 ng (miRNA assay). Timing: about 5 days (siRNA assay); about 4 days (miRNA assay). Challenge: copper sulfate induction of reporters: 25 µM (siRNA assay); 200 mM stated (miRNA assay), 1-2 days before reading. Measured: 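Dual luciferase assay: Renilla to firefly signal ratio in each well, scaled to the mean ratio of its plate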. Active means: 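a well was a first-pass pick when its plate-scaled ratio rose above 1.5 (siRNA assay) or 1.6 (miRNA assay), or dropped below 0.6; a gene counted only if two separate dsRNAs agreed on retest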.
The deposit covers about 23,000 reagents; shown is an unselected part of those that have a named target and a result. Of all reagents, 199 (0.86%) are marked active. 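Plate-scaled ratios behind the calls are not deposited; printed light signals are raw; many rows marked increased or decreased are still called inactive.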 A number with no mark means an inactive call. The numbers tell different reagents against one gene apart. Names joined by + are all predicted targets of the reagent. No sequences are given here. The record does not give: the direction of the score.

For CG4375, what does the deposit list?
stable assay Renilla, run 1 (luminescence): 8631; stable assay firefly, run 1 (luminescence): 5.14e5

For Rrp42, what does the deposit list?
stable assay Renilla, run 1 (luminescence): 7215; stable assay firefly, run 1 (luminescence): 2.99e5

With SNRPG, how do the results read?
stable siRNA reporter change: reporter ratio raised past the hit cutoff; stable assay Renilla, run 1 (luminescence): 8183; stable assay firefly, run 1 (luminescence): 3.85e5

For CG11458, what does the deposit list?
stable assay Renilla, run 1 (luminescence): 7394; stable assay firefly, run 1 (luminescence): 3.64e5

What did the screen give for CG18210 (retired record) #1?
stable assay Renilla, run 1 (luminescence): 6102; stable assay firefly, run 1 (luminescence): 6.34e5

What did the screen give for CG18210 (retired record) #2?
stable assay Renilla, run 1 (luminescence): 8167; stable assay firefly, run 1 (luminescence): 5.38e5

For CG12376, how do the results read?
stable assay Renilla, run 1 (luminescence): 8455; stable assay firefly, run 1 (luminescence): 3.96e5

For loopin-1, what was measured?
stable assay Renilla, run 1 (luminescence): 8858; stable assay firefly, run 1 (luminescence): 3.12e5

What is on record for CG12096?
stable assay Renilla, run 1 (luminescence): 9439; stable assay firefly, run 1 (luminescence): 4.22e5

With CG9822, how do the results read?
stable assay Renilla, run 1 (luminescence): 7176; stable assay firefly, run 1 (luminescence): 4.28e5

What did the screen give for Blm?
stable assay Renilla, run 1 (luminescence): 11938; stable assay firefly, run 1 (luminescence): 4.45e5

What is on record for abo?
stable assay Renilla, run 1 (luminescence): 7330; stable assay firefly, run 1 (luminescence): 4.08e5

What did the screen give for Act57B?
stable siRNA reporter change: reporter ratio lowered past the hit cutoff; stable assay Renilla, run 1 (luminescence): 9673; stable assay firefly, run 1 (luminescence): 1.35e6

What did the screen give for CG13933?
stable assay Renilla, run 1 (luminescence): 8394; stable assay firefly, run 1 (luminescence): 2.87e5

How did the screen score l(3)mbt?
stable assay Renilla, run 1 (luminescence): 6136; stable assay firefly, run 1 (luminescence): 4.23e5

With RpL15, how do the results read?
stable assay Renilla, run 1 (luminescence): 7427; stable assay firefly, run 1 (luminescence): 3.96e5

With His2B:CG33870 + His2B:CG33868 + His2B:CG33882 + 21 more, how do the results read?
stable assay Renilla, run 1 (luminescence): 6847; stable assay firefly, run 1 (luminescence): 5.38e5

What did the screen give for CG15025?
stable assay Renilla, run 1 (luminescence): 6398; stable assay firefly, run 1 (luminescence): 2.56e5

Which result is listed for Pa1?
stable assay Renilla, run 1 (luminescence): 4576; stable assay firefly, run 1 (luminescence): 4.18e5

For CG32344, how do the results read?
stable assay Renilla, run 1 (luminescence): 8250; stable assay firefly, run 1 (luminescence): 3.12e5

For CG13024, what was measured?
stable assay Renilla, run 1 (luminescence): 7379; stable assay firefly, run 1 (luminescence): 2.93e5

With CG46301, what does the deposit list?
stable assay Renilla, run 1 (luminescence): 5179; stable assay firefly, run 1 (luminescence): 3.85e5

For Cnb, what was measured?
stable assay Renilla, run 1 (luminescence): 8783; stable assay firefly, run 1 (luminescence): 2.60e5

6 entries from above, set out differently.
Target gene	reagent no.	stable siRNA reporter change	stable assay Renilla, run 1 (luminescence)	stable assay firefly, run 1 (luminescence)
Blm	1		11938	4.45e5
abo	1		7330	4.08e5
Act57B	1	reporter ratio lowered past the hit cutoff	9673	1.35e6
CG13933	1		8394	2.87e5
l(3)mbt	1		6136	4.23e5
RpL15	1		7427	3.96e5

The list goes on:
For px #1, what was measured?
stable assay Renilla, run 1 (luminescence): 13840; stable assay firefly, run 1 (luminescence): 3.70e5

With px #2, how do the results read?
stable assay Renilla, run 1 (luminescence): 3052; stable assay firefly, run 1 (luminescence): 2.90e5

What is on record for Sec23?
stable assay Renilla, run 1 (luminescence): 4511; stable assay firefly, run 1 (luminescence): 3.37e5

With l(2)37Bb, what does the deposit list?
stable assay Renilla, run 1 (luminescence): 5219; stable assay firefly, run 1 (luminescence): 3.94e5

How did the screen score jub?
stable assay Renilla, run 1 (luminescence): 6464; stable assay firefly, run 1 (luminescence): 4.22e5

What did the screen give for Wnk?
stable assay Renilla, run 1 (luminescence): 4423; stable assay firefly, run 1 (luminescence): 2.34e5

For ksh, what does the deposit list?
stable assay Renilla, run 1 (luminescence): 5531; stable assay firefly, run 1 (luminescence): 3.26e5

With CG32091 #1, how do the results read?
stable assay Renilla, run 1 (luminescence): 5443; stable assay firefly, run 1 (luminescence): 4.43e5

What did the screen give for CG32091 #2?
stable assay Renilla, run 1 (luminescence): 5999; stable assay firefly, run 1 (luminescence): 3.91e5

With l(2)10685, what does the deposit list?
stable assay Renilla, run 1 (luminescence): 95438; stable assay firefly, run 1 (luminescence): 2.99e5

Which result is listed for spdi #1?
stable assay Renilla, run 1 (luminescence): 8153; stable assay firefly, run 1 (luminescence): 4.43e5

How did the screen score spdi #2?
stable assay Renilla, run 1 (luminescence): 7511; stable assay firefly, run 1 (luminescence): 3.85e5
